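Genome-wide siRNA knockdown in TC32 Ewing sarcoma cells, comparing luciferase light from an NR0B1-promoter reporter with a CMV-promoter reporter 48 hours after transfection.
Each siRNA was applied at 20 nM.
A z-score of the log NR0B1-over-CMV signal, less the median of siRNAs with the same seed; more negative means a stronger specific loss of the NR0B1 reporter.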

The strongest results of the screen are mostly left out here.
Sequences are the guide (antisense) strand, without overhang.

| strand | target gene | seed-corrected z-score |
|---|---|---|
| `UAUGGAGCGGUUUAGGGAC` | LSP1 | 0.569 |
| `UGGGUCAUAAUGCUGUUGC` | COL10A1 | 1.381 |
| `UCUAGGAUGAGUAAUCAGC` | KIAA0319L | -0.4389 |
| `UUAUCUUGAAAAUUCCACC` | RGN | -0.6508 |
| `UGUUGAUUUAACAAGCUGC` | AFP | 0.2917 |
| `UUAAGUAGCAGGGCAAUAG` | SLC35G5 | -0.3896 |
| `UAAAGUCUCGUGUCUUUGG` | FAM162A | 0.5031 |
| `UCUAGGCACUUGUUCAGGC` | C20orf85 | 0.4326 |
| `AAUAGAACCCUUUUGUCCC` | COL25A1 | 0.03794 |
| `UGAGCUUCCUCACCUCUGC` | LRRC56 | -0.6376 |
| `UAGAGGUUCUUGGGCGUCC` | SHISA7 | -0.3707 |
| `AAAUUUCUUGUCAAGAAUC` | PSMD11 | -0.6976 |
| `UAUUAUACGGUUCCAAACC` | CEP152 | -1.042 |
| `UUUAUUAAGAGCCCUCUGC` | ZNF576 | -0.3737 |
| `UGUAGUGACAGCUUCUAGG` | LOC400958 | 0.0457 |
| `UUUAUAUCUGUCUCUAUUC` | ABI3BP | 0.2346 |
| `UCAGUGGUCAGAAAGUGGG` | TANGO2 | -1.962 |
| `UAUCCGAUGUAUGUCACGC` | GOLGA6B | -0.3783 |
| `UUAGUAGCAUGAACAUCUC` | SCN7A | -0.7506 |
| `AUCCGUUCAAUCUUGUCUG` | LRP1 | -0.04984 |
| `AACAGAUGAAUUUCGAAAC` | CUTC | 0.2956 |
| `UUGUGAUCCAGAUAGAGCC` | LRRTM1 | 0.53 |
| `ACACCGUCUGGAACGAUGC` | MYH7B | 0.3756 |
| `GGCGGUUCAACCGUAACAU` | OSTCP3 | 1.12 |
| `UAUGUGGUGAUAGGGUGCG` | MR1 | -1.735 |
| `UCUGUGAUCCCAUAAAUGU` | CIDEA | 0.07571 |
| `UUUUUCGGAAGCGAAGUUU` | ZNHIT1 | 0.5841 |
| `UUCAUGGGCACAUAGUUGU` | GAB2 | -0.2781 |
| `UUUGUAGGCCUUCAACUCC` | APOE | 0.01498 |
| `UGUUCUGUAAGAGACGAGC` | ZNF391 | -0.4525 |
| `UACUUUUUCGAUCCAAGGC` | ODF1 | 0.1279 |
| `UAACCUACUGUUCUCUUCC` | CEP72 | -0.04949 |
| `UCAUCGCACACGUUGAGGA` | KCNG1 | -0.02737 |
| `UUUCUUCUAUUGCACGCUC` | PPRC1 | 0.07482 |
| `UUCCUAAUCCUUCCACUUU` | LOC646482 | 1.182 |
| `UCCGUUUUAUUGUUGUAGG` | NEK5 | 0.2061 |
| `AAAGGUGGUGUAAAAGUCC` | NRXN2 | -0.1337 |
| `AAGAUUUCAAGGUCCAUCG` | UEVLD | 0.6128 |
| `AAACAUAUGAGCUACCUGC` | WDR31 | -0.5748 |
| `AUAUUUAACAAGGUUGCUG` | GAGE1 | 1.602 |
| `UCAGCGCAAAUUGUGACCG` | ST8SIA3 | 0.7122 |
| `UCAGUUACAAGCAGCCGCU` | HAUS4 | 1.272 |
| `UAAACAUGCCACGAAAUCU` | KRTAP2-1 | -0.1251 |
| `UUCAAUUGAAUAAACGGCC` | RTTN | -0.1278 |
| `UUCUAGACCACAAUUCCUC` | THAP10 | -0.6996 |
| `AGUGGAUAAAGCGCACACC` | NCCRP1 | 0.4645 |
| `AAAGUAGAUGUAGGUGCCC` | CNOT3 | 0.7553 |
| `UAAUUCGACCCUAUUUUGG` | SQRDL | 0.4172 |
| `AGUGUAUCUGCUCUGGUGG` | GGN | -0.0809 |
| `AAAGGUCCGAGCUUGGAGG` | C14orf1 | -0.1475 |
| `UAGUGGAUCUCCUUUAAUU` | ALDH3B2 | 0.4033 |
| `UUCAUUCACGGAGUGCAGG` | QSOX1 | -0.7101 |
| `UCCAUUUCAACGCAGAUCU` | ARHGAP4 | -1.587 |
| `UGUUUGACAGUUCUAAUCA` | TRIM17 | 0.07671 |
| `AAACUCGUCGUCAAAAUCC` | FNBP1 | -0.1696 |
| `AGCAGACCCACAAUCAUGG` | TMEM211 | 0.415 |
| `UAAAGGGAAUCAGACAUUG` | C1orf186 | 1.014 |
| `AUAGUUCUCCUUAAAUGGG` | MPPE1 | 0.2835 |
| `UCUUAUAACAACUCGGUAG` | ZNF300 | -0.1151 |
| `UAAUCGGUCACUCUCGAUC` | HK1 | -0.02156 |
| `AAGAGAACAAGACACCUUG` | FLJ41170 | 0.4804 |
| `AUAUGCACCACAUUGUAGG` | DYRK4 | -0.09942 |
| `UUCUGAAGCAGGCUGACCC` | VSIG2 | -1.193 |
| `UCAUUCUCUGGUCUGUUGU` | SRF | 0.03014 |
| `AUGGUGUAGACAAAUGAGG` | RAD51B | -0.3552 |
| `AAUUGAAACAGAUCUGACA` | RNF152 | 0.2437 |
| `UUUGAGCCUUGGGAUCUGC` | TRH | 1.468 |
| `AUCGGGAAAGAUCUGAGGC` | SLFNL1 | 0.659 |

Once more, the final 7:

strand	target gene	seed-corrected z-score
AUAUGCACCACAUUGUAGG	DYRK4	-0.09942
UUCUGAAGCAGGCUGACCC	VSIG2	-1.193
UCAUUCUCUGGUCUGUUGU	SRF	0.03014
AUGGUGUAGACAAAUGAGG	RAD51B	-0.3552
AAUUGAAACAGAUCUGACA	RNF152	0.2437
UUUGAGCCUUGGGAUCUGC	TRH	1.468
AUCGGGAAAGAUCUGAGGC	SLFNL1	0.659

From PubChem BioAssay record AID1159506 (NCATS, 2015).